In paper PMC9916151:
Results are given in words; binding and its absence hold for the method and conditions named. In cells and extracts the contact can be indirect. Some results given as binding are weak or reduced against the parent protein; the word gives no strength.

By UniProt entry, the sequences of proteins in these tests, tags left out. Residues count along the entry.
UniProt Q63604, residues 32-821: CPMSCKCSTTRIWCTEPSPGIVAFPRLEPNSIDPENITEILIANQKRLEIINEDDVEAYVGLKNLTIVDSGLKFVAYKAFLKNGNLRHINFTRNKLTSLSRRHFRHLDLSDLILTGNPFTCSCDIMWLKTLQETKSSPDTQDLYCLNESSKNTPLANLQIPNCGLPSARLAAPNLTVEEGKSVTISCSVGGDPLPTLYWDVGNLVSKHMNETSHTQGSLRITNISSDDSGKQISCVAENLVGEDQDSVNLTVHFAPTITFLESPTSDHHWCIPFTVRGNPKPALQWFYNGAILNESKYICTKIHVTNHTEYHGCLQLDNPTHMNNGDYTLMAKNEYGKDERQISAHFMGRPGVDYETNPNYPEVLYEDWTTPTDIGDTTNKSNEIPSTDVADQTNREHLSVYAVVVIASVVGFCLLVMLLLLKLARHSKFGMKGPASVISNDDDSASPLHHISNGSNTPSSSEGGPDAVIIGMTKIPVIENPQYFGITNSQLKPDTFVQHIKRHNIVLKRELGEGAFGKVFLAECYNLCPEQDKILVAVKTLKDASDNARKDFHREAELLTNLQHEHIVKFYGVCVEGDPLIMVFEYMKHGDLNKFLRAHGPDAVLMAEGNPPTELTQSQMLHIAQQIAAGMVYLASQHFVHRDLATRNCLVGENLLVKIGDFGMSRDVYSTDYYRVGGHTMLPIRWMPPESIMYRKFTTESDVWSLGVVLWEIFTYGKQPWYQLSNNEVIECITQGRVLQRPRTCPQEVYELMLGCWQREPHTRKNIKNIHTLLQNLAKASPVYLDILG
UniProt E9PT20: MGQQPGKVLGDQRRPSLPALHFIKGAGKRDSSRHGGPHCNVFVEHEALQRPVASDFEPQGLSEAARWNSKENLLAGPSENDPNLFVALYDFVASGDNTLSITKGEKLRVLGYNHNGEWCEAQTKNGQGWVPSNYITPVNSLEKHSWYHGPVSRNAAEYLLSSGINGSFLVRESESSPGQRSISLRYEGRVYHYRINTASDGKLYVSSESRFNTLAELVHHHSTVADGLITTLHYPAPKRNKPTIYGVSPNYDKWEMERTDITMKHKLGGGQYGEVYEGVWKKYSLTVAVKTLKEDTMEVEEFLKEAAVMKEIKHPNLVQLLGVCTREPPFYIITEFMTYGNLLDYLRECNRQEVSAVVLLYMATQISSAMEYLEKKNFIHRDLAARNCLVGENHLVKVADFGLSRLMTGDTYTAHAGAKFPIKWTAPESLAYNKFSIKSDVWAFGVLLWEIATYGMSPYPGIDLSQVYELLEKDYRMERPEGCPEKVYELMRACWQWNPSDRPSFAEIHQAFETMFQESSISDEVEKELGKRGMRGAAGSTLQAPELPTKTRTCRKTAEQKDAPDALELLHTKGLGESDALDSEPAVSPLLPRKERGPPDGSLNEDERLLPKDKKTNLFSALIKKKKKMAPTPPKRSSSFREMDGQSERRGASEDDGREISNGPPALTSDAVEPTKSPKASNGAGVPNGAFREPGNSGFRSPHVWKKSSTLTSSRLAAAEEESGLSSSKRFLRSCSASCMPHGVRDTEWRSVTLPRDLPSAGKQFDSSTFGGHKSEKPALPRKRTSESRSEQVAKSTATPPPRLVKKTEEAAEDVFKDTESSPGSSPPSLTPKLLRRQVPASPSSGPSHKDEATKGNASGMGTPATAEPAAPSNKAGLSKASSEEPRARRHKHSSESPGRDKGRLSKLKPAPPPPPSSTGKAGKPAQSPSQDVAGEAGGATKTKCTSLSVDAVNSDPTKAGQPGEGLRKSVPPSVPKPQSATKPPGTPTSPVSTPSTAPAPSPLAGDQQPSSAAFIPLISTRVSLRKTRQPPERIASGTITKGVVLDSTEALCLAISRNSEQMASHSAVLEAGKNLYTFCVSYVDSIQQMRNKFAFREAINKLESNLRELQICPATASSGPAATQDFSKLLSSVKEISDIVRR

How the values were obtained:
[1] = target: TrkB receptor (rat (endogenous in hippocampal neurons)) (UniProt Q63604); experiment: co-IP; 7 DIV rat hippocampal neurons stimulated with 50 ng/mL BDNF for 1 h; lysis in 20 mM Tris, 150 mM NaCl, 10% glycerol, 1% Igepal, 2 mM EDTA; 300-500 ug lysate with 2 ug anti-c-Abl (K12) or anti-TrkB (Millipore) overnight at 4 C; protein G-Plus agarose; western blot
[2] = target: TrkB receptor (rat (endogenous in hippocampal neurons)) (UniProt Q63604); experiment: co-IP; as a1, but neurons not stimulated with BDNF (control)

binding [1]: binds
Substance: c-Abl tyrosine kinase (from UniProt E9PT20 1-1143) (enzyme)
binding [2]: no binding (condition: neurons without BDNF stimulation)
